The other results are listed elsewhere or left out. These are further read-outs of the screen, such as a control signal, another cell line or another target. No call is given for them. Most of these compounds were active or inconclusive in the main read-out, so they are no random draw. The note in brackets gives the kind of curve behind each potency; many fits are weak.
Assay: qHTS Assay for Lipid Storage Modulators in Drosophila S3 Cells;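 as to cell number change: cells counted by Cell Tracker Red CMTPX staining in the red channel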
Conditions: BODIPY lipid droplet fluorescence, 18-24 h; for cell number change: measured here: cell count max response, cells fed with added oleic acid
In short: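 Laser-scanning cytometry quantifies lipid droplet accumulation (500–530 nm total intensity; droplet/cell object ratio) in oleic acid-fed (400 uM added) Drosophila S3 cells treated with a concentration series. 20 uM Triacsin C defined 100% inhibition.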

[1] = measured here: cell number channel AC50, cells fed with added oleic acid
[2] = measured here: lipid fluorescence (Fed channel) AC50, cells fed with added oleic acid

| SMILES | cell number change [%] | AC50 [1] | AC50 [2] |
| --- | --- | --- | --- |
| COc1ccc(-c2noc(-c3ccccc3C(=O)NCc3ccco3)n2)cc1OC | 156 | 0.731 µM [rising, single point] | 0.58 µM [rising, single point] |
| CN(C)c1ccc(-c2nnn(CC(=O)N3c4ccccc4CCc4ccccc43)n2)cc1 | -64.5 | 1.46 µM [falling, partial curve] | 3.66 µM [falling, full curve] |
| CCOc1cccc(C(=O)NC(=S)Nc2cccc(NC(=O)c3ccccc3Cl)c2)c1 | 10.1 | 6.51 µM [rising, single point] | 4.61 µM [falling, partial curve, poor fit] |
| COC(=O)c1c(NC(=S)Nc2ccc(CC(=O)O)cc2)sc(C)c1C | 2.07 |  | 0.731 µM [falling, full curve, poor fit] |
| Cc1ccc(S(=O)(=O)NCc2csc(-c3cccs3)n2)cc1 | 37.6 | 25.9 µM [rising, single point] |  |
| N#Cc1cc(Cl)c(NCC2CCCO2)cc1C#N (stereo not drawn) | -66.4 | 32.6 µM [falling, single point] |  |
| Cc1ccc(S(=O)(=O)N2CCN(C(=O)c3ccc(COc4ccccc4)o3)CC2)cc1 | -6.69 |  | 0.82 µM [rising, full curve] |
| COC(=O)C1=C(C)N(Cc2ccccc2)C(=NCc2cccc(C(F)(F)F)c2)N[C@H]1c1cccc(C(F)(F)F)c1 | -42.4 | 13 µM [falling, partial curve] | 20.6 µM [falling, partial curve] |
| COc1ccc(-n2c(SCC(=O)Nc3ccc4c(c3)OCO4)nc3c(c2=O)SCC3)cc1 | 21.6 |  | 0.146 µM [rising, full curve, poor fit] |
| COc1ccc(-n2c(SCC(N)=O)nnc2-c2ccco2)cc1 | -6.82 |  | 13 µM [falling, partial curve] |
| C/C(=N\Nc1nccnc1Cl)c1c(F)c(F)c(F)c(F)c1F | 4.25 |  | 0.731 µM [falling, full curve, poor fit] |
| CC(=O)c1cc(-c2ccccc2)n(CC(=O)N2CCCCC2)c1C | -50.9 | 2.06 µM [falling, full curve] | 1.46 µM [falling, full curve] |
| CC1CCN(C(=O)CSc2nnc(-c3ccco3)o2)CC1 | 0.552 |  | 0.00461 µM [rising, full curve, poor fit] |
| O=C(Cn1ncc2c(=O)oc3ccccc3c21)NCCC1=CCCCC1 | -0.838 |  | 0.0058 µM [falling, full curve, poor fit] |
| Cc1c(C(=O)NC2CCCCC2C)oc2ccccc12 (stereo not drawn) | -1.08 |  | 29.1 µM [falling, single point] |
| O=C(Cc1ccc(Cl)cc1Cl)Nc1ccncc1 | -33 |  | 2.82 µM [falling, partial curve] |
| CC(=O)c1cc2c(cc1N/C(=N/S(=O)(=O)c1ccc(C)cc1)c1ccc(Cl)cc1)OCO2 |  | 1.84 µM [rising, partial curve] | 1.84 µM [rising, partial curve] |
| C(=C\n1nnc2ccccc21)/c1ccccn1 | -31.6 | 0.58 µM [falling, full curve] | 6.51 µM [falling, single point] |

Two compounds drawn at random from those above, as already listed:

| SMILES | cell number change [%] | AC50 [1] | AC50 [2] |
| --- | --- | --- | --- |
| Cc1ccc(S(=O)(=O)NCc2csc(-c3cccs3)n2)cc1 | 37.6 | 25.9 µM [rising, single point] |  |
| CC(=O)c1cc(-c2ccccc2)n(CC(=O)N2CCCCC2)c1C | -50.9 | 2.06 µM [falling, full curve] | 1.46 µM [falling, full curve] |

Next structures:

| SMILES | cell number change [%] | AC50 [1] | AC50 [2] |
| --- | --- | --- | --- |
| Cc1cnc(-c2nnc(N(C)C(=O)c3cccnc3)s2)cn1 | -3.26 |  |  |
| COc1ccc(C(=O)Nc2ccccc2N2CCCC2)cc1S(=O)(=O)N1CCOCC1 |  | 3.66 µM [rising, partial curve, poor fit] |  |
| C[C@H](NC(=O)c1ccccc1)C(=O)OCC(=O)c1c[nH]c2ccccc12 | 35.4 | 7.31 µM [rising, single point] |  |
| CC(C)(C)NC(=O)CN(c1cccc([N+](=O)[O-])c1)S(=O)(=O)c1ccccc1 | 3.82 |  | 0.92 µM [falling, single point] |
| Nc1cc(=O)[nH]n1C1CCCC1 | -97.2 | 23.1 µM [falling, single point] |  |
| CCOc1ccc(OCC)c(NC(=O)CSc2nc3c(c(=O)n(C)c(=O)n3C)n2CC)c1 | 5.67 | 0.206 µM [rising, full curve, poor fit] | 0.411 µM [rising, full curve] |
| CCOC(=O)c1sc(N)c(C#N)c1CSc1nnc(C2CCCCC2)n1N | -28.9 |  | 0.103 µM [falling, full curve, poor fit] |
| CCCS(=O)(=O)c1ccc(COC(=O)c2ccc(NC(C)=O)cc2)cc1 | 19.5 |  | 2.59 µM [rising, partial curve] |
| O=C(Nc1ccccc1N1CCOCC1)c1cc2c(s1)CCCCC2 | 28.1 |  |  |
| O=C(CSCc1cccc(CSCC(=O)Nc2ccccc2)n1)Nc1ccccc1 | 2.56 |  | 13 µM [rising, single point] |
| CCc1ccc(C(=O)N/N=C/c2ccncc2)s1 | 32.3 |  | 6.51 µM [rising, single point] |
| CCN1CCN(c2ccc(NC(=O)c3cccc(N4CCCC4=O)c3)cc2)CC1 | -2.63 |  |  |
| COc1cc(NC(=O)C2CC(=O)N(Cc3ccco3)C2)c(OC)cc1Cl (stereo not drawn) | -50.7 | 25.9 µM [falling, partial curve, poor fit] | 25.9 µM [falling, partial curve, poor fit] |
| O=C1OCc2cc(NC(=O)C34CC5CC(CC(C5)C3)C4)ccc21 | -69.3 | 16.4 µM [falling, partial curve] | 20.6 µM [falling, partial curve] |
| O=C(N/N=C/c1cc(O)ccc1Br)c1cccnc1 | -2.46 |  | 6.51 µM [rising, partial curve, poor fit] |
| O=C(CCCC(=O)N(CC(=O)NC1CCCCC1)c1ccccc1F)Nc1ccccn1 | -4.05 |  | 4.11 µM [falling, full curve] |
| O=C1CC(c2cc(-c3ccccc3)no2)C1 | 0.599 |  | 29.1 µM [rising, single point] |
| O=C(NCCc1ccccc1)c1ccc2nc(-c3ccco3)c(-c3ccco3)nc2c1 | -121 | 29.1 µM [falling, single point] | 0.291 µM [rising, partial curve, poor fit] |

— PubChem BioAssay AID2685 (National Center for Advancing Translational Sciences (NCATS), 2010)
